Here are results for six molecules from paper PMC7578904.

Sequences of proteins named here, by UniProt entry; tags and fusion partners are left off. A change or cut given only in a name is not applied to a line headed by its entry.
UniProt Q8IYW5: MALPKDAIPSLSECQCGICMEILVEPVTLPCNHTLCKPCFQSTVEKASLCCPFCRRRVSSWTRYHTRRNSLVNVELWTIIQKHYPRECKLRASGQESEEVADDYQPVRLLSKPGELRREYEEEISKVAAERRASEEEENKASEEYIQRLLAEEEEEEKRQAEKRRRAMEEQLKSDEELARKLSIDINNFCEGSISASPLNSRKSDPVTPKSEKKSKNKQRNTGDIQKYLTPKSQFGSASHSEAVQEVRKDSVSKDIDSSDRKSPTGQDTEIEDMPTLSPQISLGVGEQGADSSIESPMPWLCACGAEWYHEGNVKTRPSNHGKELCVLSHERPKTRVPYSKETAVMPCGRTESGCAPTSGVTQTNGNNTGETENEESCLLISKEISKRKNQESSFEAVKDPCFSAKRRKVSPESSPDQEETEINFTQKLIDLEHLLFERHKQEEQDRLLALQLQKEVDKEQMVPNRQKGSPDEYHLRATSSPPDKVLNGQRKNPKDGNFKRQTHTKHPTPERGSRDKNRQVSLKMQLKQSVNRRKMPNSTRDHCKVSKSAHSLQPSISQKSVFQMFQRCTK
UniProt P49959: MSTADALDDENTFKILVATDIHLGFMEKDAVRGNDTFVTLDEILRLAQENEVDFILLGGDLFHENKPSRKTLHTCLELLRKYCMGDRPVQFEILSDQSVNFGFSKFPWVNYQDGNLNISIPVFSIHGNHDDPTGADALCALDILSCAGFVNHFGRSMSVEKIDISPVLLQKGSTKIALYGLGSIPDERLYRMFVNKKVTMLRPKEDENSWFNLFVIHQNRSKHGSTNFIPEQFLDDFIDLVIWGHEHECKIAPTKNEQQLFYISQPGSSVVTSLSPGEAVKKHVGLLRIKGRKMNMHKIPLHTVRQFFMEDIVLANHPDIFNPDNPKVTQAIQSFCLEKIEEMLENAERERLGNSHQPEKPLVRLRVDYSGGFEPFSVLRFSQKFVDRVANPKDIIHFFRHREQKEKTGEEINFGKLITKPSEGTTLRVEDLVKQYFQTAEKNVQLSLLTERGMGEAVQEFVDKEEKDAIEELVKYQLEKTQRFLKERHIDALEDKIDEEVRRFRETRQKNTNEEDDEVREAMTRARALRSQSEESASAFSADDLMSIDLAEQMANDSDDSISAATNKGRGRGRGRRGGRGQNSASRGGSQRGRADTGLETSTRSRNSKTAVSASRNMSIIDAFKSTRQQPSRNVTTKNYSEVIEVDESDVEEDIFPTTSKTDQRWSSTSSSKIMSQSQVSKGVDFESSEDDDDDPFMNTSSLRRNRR
UniProt Q92878: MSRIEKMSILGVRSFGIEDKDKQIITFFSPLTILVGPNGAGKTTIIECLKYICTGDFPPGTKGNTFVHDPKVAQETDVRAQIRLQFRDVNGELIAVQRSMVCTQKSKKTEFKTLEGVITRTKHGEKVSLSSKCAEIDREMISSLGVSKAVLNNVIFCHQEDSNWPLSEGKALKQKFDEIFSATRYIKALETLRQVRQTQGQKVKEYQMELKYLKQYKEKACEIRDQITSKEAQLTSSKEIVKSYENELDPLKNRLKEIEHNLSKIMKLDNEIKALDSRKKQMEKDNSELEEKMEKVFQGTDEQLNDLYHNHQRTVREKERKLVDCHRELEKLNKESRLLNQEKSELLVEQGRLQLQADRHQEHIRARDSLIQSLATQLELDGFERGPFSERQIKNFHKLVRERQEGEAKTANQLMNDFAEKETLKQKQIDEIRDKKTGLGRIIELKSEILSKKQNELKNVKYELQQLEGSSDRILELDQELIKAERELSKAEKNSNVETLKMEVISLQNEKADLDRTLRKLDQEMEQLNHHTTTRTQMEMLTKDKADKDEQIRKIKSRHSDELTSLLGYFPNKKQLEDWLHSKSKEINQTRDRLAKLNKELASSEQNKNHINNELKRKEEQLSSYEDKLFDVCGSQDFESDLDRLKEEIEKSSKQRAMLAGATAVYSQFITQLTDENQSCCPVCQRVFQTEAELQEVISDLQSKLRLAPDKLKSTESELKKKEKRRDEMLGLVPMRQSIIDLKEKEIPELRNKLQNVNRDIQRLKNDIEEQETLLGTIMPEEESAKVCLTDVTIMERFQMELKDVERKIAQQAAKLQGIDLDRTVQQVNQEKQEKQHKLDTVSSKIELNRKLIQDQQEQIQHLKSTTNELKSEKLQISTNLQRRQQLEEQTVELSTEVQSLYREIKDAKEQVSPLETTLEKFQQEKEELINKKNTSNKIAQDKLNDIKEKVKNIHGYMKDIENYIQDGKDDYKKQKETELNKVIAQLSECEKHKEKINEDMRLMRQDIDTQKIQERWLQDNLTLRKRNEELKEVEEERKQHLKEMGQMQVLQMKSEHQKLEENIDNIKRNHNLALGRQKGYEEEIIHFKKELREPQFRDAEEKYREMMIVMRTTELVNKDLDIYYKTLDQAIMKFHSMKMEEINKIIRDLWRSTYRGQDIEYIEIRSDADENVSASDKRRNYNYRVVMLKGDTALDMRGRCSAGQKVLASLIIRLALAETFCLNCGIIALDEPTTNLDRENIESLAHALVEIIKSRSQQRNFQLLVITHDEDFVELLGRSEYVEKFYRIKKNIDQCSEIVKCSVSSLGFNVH
UniProt O60934: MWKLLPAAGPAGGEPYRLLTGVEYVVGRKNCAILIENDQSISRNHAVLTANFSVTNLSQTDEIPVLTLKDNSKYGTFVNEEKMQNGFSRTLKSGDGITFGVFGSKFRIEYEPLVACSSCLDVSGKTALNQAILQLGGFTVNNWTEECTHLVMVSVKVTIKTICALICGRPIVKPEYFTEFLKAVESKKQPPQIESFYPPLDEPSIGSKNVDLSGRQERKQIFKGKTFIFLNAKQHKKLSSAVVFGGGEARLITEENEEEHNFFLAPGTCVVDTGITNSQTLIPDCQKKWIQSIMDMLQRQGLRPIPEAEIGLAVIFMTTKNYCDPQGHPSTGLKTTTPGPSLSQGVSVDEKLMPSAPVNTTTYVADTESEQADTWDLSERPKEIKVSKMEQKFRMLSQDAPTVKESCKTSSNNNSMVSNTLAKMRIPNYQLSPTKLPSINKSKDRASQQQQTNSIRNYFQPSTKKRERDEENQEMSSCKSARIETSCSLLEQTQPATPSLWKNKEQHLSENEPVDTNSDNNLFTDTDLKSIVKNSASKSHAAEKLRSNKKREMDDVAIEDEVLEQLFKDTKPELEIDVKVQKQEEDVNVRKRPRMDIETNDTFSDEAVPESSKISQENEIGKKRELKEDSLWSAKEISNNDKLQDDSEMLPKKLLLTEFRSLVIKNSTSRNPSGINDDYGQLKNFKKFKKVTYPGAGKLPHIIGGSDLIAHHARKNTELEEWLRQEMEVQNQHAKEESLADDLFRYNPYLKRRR
UniProt Q13535: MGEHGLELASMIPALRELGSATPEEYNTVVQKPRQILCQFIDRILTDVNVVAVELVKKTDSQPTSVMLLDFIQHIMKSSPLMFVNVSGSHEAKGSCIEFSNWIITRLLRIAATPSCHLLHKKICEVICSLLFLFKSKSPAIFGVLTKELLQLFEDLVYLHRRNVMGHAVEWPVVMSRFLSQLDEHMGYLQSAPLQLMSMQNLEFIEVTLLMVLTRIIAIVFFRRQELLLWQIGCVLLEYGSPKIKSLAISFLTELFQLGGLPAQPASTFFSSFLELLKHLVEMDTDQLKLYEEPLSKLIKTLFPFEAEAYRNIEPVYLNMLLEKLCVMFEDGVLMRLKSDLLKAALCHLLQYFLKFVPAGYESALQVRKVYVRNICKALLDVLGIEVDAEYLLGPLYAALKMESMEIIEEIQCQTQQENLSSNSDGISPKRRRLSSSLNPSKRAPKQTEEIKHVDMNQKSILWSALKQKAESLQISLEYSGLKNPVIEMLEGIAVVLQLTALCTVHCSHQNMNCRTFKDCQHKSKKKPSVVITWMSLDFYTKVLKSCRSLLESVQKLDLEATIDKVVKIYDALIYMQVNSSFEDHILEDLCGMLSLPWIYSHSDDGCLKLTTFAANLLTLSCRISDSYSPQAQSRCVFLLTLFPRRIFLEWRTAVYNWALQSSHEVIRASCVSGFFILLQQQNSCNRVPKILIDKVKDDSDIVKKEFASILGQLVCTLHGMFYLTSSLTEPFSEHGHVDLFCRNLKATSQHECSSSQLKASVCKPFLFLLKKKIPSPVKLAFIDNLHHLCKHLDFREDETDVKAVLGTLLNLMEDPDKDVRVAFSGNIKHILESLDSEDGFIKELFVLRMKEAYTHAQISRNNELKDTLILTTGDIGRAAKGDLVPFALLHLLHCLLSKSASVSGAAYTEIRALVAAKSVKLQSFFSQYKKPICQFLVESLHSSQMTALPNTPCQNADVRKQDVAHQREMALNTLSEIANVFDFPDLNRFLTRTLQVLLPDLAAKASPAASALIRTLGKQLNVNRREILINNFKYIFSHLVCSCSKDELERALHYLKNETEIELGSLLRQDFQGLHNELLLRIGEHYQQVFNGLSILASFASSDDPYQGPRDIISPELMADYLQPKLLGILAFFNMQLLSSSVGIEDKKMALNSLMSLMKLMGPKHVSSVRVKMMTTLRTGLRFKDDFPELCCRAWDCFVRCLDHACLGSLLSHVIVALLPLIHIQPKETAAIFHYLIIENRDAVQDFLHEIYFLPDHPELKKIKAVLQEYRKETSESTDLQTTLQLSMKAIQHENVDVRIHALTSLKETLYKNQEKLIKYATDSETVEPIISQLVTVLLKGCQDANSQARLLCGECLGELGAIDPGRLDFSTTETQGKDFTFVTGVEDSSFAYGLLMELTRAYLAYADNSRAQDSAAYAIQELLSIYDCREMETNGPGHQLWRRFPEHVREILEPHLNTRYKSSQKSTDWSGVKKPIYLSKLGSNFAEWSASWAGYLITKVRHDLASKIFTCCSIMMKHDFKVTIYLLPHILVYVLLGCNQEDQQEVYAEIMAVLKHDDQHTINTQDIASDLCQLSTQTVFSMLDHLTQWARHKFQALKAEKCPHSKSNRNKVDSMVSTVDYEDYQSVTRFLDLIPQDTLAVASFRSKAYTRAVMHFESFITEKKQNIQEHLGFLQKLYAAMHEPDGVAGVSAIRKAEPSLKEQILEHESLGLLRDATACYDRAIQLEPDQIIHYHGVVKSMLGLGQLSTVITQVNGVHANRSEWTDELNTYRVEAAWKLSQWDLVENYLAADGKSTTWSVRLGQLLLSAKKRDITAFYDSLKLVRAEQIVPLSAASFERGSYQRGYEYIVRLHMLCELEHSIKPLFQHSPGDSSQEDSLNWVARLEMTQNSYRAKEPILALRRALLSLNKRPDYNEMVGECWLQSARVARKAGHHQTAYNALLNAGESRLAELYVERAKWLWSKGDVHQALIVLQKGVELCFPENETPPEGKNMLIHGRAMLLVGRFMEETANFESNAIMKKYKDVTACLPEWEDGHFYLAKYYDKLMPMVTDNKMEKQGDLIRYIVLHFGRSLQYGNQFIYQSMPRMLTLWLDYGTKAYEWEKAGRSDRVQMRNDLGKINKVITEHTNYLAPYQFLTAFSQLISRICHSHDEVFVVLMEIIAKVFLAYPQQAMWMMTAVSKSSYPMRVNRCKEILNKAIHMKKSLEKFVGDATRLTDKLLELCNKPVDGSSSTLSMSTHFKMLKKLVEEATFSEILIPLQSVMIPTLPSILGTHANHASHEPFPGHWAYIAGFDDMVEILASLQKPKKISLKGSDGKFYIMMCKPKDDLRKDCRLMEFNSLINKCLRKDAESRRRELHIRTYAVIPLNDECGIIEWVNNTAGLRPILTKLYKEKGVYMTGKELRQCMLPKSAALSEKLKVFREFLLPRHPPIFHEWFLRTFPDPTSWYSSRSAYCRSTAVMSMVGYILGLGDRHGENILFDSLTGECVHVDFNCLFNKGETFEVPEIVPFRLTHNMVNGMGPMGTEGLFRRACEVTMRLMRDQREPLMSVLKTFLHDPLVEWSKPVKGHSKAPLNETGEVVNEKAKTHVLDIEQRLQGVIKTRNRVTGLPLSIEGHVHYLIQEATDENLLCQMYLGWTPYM
UniProt Q92769: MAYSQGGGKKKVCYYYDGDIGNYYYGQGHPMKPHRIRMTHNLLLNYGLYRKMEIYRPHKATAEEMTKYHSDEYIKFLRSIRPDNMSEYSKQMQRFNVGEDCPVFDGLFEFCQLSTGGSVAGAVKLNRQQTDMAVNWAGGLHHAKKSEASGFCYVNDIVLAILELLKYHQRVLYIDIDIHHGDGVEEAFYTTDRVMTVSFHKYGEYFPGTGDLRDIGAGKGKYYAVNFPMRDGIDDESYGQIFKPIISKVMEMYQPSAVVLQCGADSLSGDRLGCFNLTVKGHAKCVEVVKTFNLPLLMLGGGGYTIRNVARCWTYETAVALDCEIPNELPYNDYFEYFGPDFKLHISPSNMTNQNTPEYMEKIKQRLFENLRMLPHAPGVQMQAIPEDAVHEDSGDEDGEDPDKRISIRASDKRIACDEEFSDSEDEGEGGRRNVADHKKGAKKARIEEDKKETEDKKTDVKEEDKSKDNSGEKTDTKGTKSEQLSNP

No constants are given. Whether binding was seen depends on the method and setting. In cells and extracts the contact can be indirect. Some binding calls cover weakened binding; strength is not graded here. For some assays here: Sequences can lack the tags named with a protein.

Test [1] deals with T1, BRD7 (endogenous) (human (endogenous in HeLa)) (UniProt Q9NPI1).
T1 sequence: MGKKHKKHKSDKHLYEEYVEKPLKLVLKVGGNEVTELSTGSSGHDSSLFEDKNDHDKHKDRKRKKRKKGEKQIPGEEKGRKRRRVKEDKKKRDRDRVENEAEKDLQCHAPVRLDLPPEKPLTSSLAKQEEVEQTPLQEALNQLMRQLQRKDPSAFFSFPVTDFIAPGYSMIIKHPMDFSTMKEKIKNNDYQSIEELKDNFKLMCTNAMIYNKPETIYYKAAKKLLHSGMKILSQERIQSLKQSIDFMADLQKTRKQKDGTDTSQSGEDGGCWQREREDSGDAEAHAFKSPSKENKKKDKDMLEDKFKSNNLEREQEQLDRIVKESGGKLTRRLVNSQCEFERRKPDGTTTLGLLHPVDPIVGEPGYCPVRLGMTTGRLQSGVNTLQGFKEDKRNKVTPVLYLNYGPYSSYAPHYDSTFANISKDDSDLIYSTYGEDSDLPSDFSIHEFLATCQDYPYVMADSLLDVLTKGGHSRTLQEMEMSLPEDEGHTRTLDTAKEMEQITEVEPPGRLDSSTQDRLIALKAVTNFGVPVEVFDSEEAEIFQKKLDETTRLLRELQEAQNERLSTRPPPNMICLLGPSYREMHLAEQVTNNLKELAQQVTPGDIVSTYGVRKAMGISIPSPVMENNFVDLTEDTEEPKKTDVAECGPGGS
The test can be described thus: co-IP; endogenous proteins of HeLa cells, untreated or treated with IR (5 Gy) or CPT (1 uM, 1 h); lysed in RIPA buffer, IP with the indicated antibodies overnight at 4 °C, washed three times with NETN buffer, Western blot. A general note: In western blotting, separated proteins are transferred to a membrane and probed.

A further test concerns the target T2, SFB-BRD7(Δ1-128) (human) (UniProt Q9NPI1).
T2 sequence: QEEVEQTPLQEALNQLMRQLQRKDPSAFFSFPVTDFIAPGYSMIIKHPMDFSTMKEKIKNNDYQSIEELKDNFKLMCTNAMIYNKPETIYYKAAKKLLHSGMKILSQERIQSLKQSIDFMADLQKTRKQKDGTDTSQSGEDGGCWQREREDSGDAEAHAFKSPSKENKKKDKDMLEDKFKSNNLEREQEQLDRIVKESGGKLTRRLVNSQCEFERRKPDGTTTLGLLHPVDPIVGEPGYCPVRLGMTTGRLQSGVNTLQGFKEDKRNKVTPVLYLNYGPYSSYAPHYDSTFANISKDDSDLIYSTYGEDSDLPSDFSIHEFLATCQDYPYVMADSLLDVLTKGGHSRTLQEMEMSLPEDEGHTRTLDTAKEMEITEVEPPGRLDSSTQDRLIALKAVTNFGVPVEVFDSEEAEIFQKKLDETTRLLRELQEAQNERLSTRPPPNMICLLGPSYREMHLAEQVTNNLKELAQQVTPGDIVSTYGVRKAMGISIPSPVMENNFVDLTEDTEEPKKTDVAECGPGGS
The test can be described thus: co-IP; HeLa cells transfected with SFB-BRD7 wild type or deletion mutants for 24 h, IR (5 Gy) for 1 h; lysed with RIPA in the presence of benzonase; S beads; Western blot.

In test [2] the target is T3, BRD7 (ΔBD, a mutant lacking the bromodomain) (human) (UniProt Q9NPI1).
T3 sequence: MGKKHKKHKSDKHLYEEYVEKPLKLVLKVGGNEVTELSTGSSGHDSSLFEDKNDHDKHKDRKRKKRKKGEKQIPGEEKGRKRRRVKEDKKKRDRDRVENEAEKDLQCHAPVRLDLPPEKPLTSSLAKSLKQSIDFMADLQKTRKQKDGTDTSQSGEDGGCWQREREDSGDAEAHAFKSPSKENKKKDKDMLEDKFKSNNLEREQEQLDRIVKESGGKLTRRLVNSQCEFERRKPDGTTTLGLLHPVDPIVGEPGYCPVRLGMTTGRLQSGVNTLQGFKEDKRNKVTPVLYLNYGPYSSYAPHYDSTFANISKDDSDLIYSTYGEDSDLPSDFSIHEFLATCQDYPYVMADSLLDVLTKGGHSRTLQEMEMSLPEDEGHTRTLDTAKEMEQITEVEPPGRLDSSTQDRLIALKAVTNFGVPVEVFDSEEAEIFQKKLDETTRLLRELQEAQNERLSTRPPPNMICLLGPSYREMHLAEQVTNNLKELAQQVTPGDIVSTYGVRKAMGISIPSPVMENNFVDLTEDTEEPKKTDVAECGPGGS
The test can be described thus: pull-down; GST-BRD7 wildtype and mutants purified from bacteria, immobilised on glutathione-agarose beads, incubated with HeLa cell lysates overnight at 30 °C, washed with NETN buffer three times, Western blot; only the target purified.

Test [3] deals with T4, GST-BRD7 wildtype (human) (UniProt Q9NPI1).
T4 sequence: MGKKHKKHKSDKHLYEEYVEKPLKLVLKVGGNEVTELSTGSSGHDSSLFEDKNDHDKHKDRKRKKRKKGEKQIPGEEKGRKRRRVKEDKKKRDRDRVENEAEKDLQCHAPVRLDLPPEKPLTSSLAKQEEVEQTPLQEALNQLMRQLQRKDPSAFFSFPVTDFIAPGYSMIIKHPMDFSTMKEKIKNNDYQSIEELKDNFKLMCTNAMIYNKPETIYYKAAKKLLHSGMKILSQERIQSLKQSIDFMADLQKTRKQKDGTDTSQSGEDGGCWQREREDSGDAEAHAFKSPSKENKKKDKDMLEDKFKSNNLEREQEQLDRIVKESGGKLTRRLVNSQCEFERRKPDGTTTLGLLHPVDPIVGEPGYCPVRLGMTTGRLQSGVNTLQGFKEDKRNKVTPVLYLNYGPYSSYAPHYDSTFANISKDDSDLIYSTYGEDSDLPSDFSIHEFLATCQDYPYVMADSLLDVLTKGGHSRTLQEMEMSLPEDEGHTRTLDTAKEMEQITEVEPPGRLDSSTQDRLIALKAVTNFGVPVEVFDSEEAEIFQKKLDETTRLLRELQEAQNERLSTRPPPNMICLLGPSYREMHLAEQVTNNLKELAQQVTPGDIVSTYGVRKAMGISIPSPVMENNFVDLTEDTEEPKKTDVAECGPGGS
Described as above.

Test [4] deals with T5, BRD7 with deletion of the 1–128 domain (human) (UniProt Q9NPI1).
T5 sequence: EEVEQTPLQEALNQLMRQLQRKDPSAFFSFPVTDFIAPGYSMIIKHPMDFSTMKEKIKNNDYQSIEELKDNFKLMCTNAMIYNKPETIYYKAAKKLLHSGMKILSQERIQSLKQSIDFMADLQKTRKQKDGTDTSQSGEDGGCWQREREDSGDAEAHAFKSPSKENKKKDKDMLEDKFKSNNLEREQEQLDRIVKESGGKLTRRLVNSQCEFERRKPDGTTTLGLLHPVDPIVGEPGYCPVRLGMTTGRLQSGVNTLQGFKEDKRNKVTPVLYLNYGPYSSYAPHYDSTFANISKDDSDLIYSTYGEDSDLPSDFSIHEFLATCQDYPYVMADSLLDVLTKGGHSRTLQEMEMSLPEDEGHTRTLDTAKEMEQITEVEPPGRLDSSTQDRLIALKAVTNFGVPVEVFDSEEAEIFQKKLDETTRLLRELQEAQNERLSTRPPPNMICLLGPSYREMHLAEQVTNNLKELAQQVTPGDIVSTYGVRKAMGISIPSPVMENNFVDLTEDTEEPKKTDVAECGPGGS
The description is as above.

The target in another test is Flag-RNF168 (human) (UniProt Q8IYW5). The test can be described thus: co-IP; HeLa cells transfected with Flag-RNF8 or Flag-RNF168, treated with IR (5 Gy), IP with anti-Flag, Western blot for endogenous BRD7.
The next test deals with T6, Flag-RNF8 (human) (UniProt O76064).
T6 sequence: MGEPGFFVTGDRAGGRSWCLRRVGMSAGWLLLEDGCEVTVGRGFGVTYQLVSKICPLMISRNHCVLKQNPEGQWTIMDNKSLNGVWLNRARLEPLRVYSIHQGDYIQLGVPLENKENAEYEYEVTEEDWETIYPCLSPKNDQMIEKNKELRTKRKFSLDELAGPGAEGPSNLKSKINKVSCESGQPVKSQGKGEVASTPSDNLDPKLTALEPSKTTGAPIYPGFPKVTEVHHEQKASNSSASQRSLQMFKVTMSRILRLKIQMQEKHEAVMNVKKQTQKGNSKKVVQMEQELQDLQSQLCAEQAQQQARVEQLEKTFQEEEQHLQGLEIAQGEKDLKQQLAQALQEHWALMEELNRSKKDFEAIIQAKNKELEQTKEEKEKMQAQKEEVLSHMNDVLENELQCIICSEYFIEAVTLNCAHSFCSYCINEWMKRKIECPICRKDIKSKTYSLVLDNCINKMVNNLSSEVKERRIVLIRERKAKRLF
The description is as above.

For test [5], the target named is ATM (endogenous) (human (endogenous in HeLa)) (UniProt Q13315). In words: co-IP; endogenous proteins of HeLa cells, untreated or treated with IR (5 Gy) or CPT (1 uM, 1 h); lysed in RIPA buffer, IP with the indicated antibodies overnight at 4 °C, washed three times with NETN buffer, Western blot.
In test [6] the target is MRE11‐RAD50‐NBS1 (MRN) complex (human (endogenous in HeLa)) (UniProt P49959+Q92878+O60934). The test is described as above.
For test [7], the target named is RNF168 (endogenous) (human (endogenous in HeLa)) (UniProt Q8IYW5). The test is described as above.
Test [8] concerns the target ATR (endogenous) (human (endogenous in HeLa)) (UniProt Q13535). Described as above.

In the case of “HDAC1 (from UniProt Q13547 1-482) (enzyme)”, the binding entry in [1] is given as “no binding”.

Consider “HDAC2 (from UniProt Q92769 1-488) (enzyme)”, for which the binding entry in [1] is “no binding”.

For “MRE11-RAD50-NBS1 (MRN) complex (from UniProt P49959 1-708; Q92878 1-1312; O60934 1-754)”, the binding entry in the test with SFB-BRD7(Δ1-128) (human) is on record as “no binding”.

Consider “MRE11‐RAD50‐NBS1 (MRN) complex (from UniProt P49959 1-708; Q92878 1-1312; O60934 1-754)”, for which the binding entry in test [1], in [2], in [3] and in test [4] was “binds” each time.

“RNF168 (endogenous) (from UniProt Q8IYW5 1-571) (enzyme)”: the binding result in [3] is given as “binds”.

B1: BRD7 (endogenous) (protein, UniProt Q9NPI1-2 1-652)
chain: MGKKHKKHKSDKHLYEEYVEKPLKLVLKVGGNEVTELSTGSSGHDSSLFEDKNDHDKHKDRKRKKRKKGEKQIPGEEKGRKRRRVKEDKKKRDRDRVENEAEKDLQCHAPVRLDLPPEKPLTSSLAKQEEVEQTPLQEALNQLMRQLQRKDPSAFFSFPVTDFIAPGYSMIIKHPMDFSTMKEKIKNNDYQSIEELKDNFKLMCTNAMIYNKPETIYYKAAKKLLHSGMKILSQERIQSLKQSIDFMADLQKTRKQKDGTDTSQSGEDGGCWQREREDSGDAEAHAFKSPSKENKKKDKDMLEDKFKSNNLEREQEQLDRIVKESGGKLTRRLVNSQCEFERRKPDGTTTLGLLHPVDPIVGEPGYCPVRLGMTTGRLQSGVNTLQGFKEDKRNKVTPVLYLNYGPYSSYAPHYDSTFANISKDDSDLIYSTYGEDSDLPSDFSIHEFLATCQDYPYVMADSLLDVLTKGGHSRTLQEMEMSLPEDEGHTRTLDTAKEMEQITEVEPPGRLDSSTQDRLIALKAVTNFGVPVEVFDSEEAEIFQKKLDETTRLLRELQEAQNERLSTRPPPNMICLLGPSYREMHLAEQVTNNLKELAQQVTPGDIVSTYGVRKAMGISIPSPVMENNFVDLTEDTEEPKKTDVAECGPGGS
For the molecule B1, the binding result with Flag-RNF168 (human) is listed as “binds”; in the test with Flag-RNF8 (human), “no binding”; in test [5], “binds”; in [6] it was “binds”; in test [7], “binds”; in test [8] it was “binds”.
